Measurements published in US7378232B2 (priority 2002, dated 2008).
At least one structure is not confirmed: it was looked up by name or label, or the drawing left a doubt.

Tested on: wild-type melan-a melanocytes (A) and P-null melanocytes (P)
Format: cell-based

[Li] [LITHIUM, lithium]
TOXIN S[…] CHANGE (as a function of P protein expression): ✓
